According to paper PMC6104132:
These are yes or no findings as the source states them, for the method shown. Binding seen in cells or lysates may run through a third protein. A yes stands for co-enrichment or nearness to the bait. Other partners may have been found. Tags and fused reporters may be left off the sequences shown.

Target: T1, FLAG-Cj0371 protein (C. jejuni NCTC11168) (UniProt Q9PID1)
T1 sequence: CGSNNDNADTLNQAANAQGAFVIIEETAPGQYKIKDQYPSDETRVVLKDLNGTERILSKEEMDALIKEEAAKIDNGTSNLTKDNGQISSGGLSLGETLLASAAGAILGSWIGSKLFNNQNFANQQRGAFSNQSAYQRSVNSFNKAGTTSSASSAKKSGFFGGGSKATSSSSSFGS
Assay: affinity purification with mass spectrometry

B1: CheV (cj0285c), chemotaxis protein (protein, UniProt Q0PBM1 1-318)
chain: MFDENIVKTGSNEMELVDFRIFKQGHDKVYEGIYGVNVSKVREIIKIPSLTELPGVPDYIEGIFDLRGVVIPVVNLAKWMQITEPESTMLKPRVIITEFSNILIGFIVHEAKRIRRINWKDIEPATFSTGSGALDKGKITGVTRIENDEVLLILDLESVVEDLGIYAPKTDIDFGKIEKFTGTALILDDSMTARKRVKEMMQQMGFQVVEAKDGVEGINKLEELSQIYGESLNDTLKIIVSDVEMPQMDGFHFAARIKEDPRFKDIPIVFNSSLSNEFMNEKGVQEAGGEGYLVKFNASDFFNEIAKVIKKHQSQEQG
binding: binds
